In all, about 330,000 compounds went through this assay and about 100 (0.03%) were called active. The shares of active, inactive and inconclusive entries below differ from those in the screen. The call rests on the fitted dose curve; in most records, active means well fitted inhibition curve with a large enough effect; inconclusive means small, poorly fitted or top-dose-only effect; inactive means flat fitted curve, though single readings scatter. Potencies of inconclusive entries are doubtful fits and often do not repeat.
test system: Chaperonin Mm-Cpn (Methanococcus maripaludis); test: Inhibitors of TCP-1 ring complex (TRiC) of Methanococcus maripaludis (MmCpn): qHTS; conditions: purified Mm-Cpn ATPase, ADP Transcreener TR-FRET; further: nearly all actives have a fitted effect of over 80% in size;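 on Potency: enzyme at 25 nM with ATP substrate at 10 µM during the reaction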
How it was run: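 ATP (10 uM final) was added to archaeal chaperonin (25 nM final) after 10 min exposure to test compound at 37°C; after 30 min further incubation, ADP was detected by competitive TR-FRET.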
Potency means the concentration at half of the fitted maximal effect.

Potency, inconclusive:
Cc1ccc(CNC(=O)c2ccc3c(=O)n4c(-c5ccc(C)cc5)csc4nc3c2)cc1 200 µM [inhibitor, partial curve, poor fit]
CCOC(=O)N1CCN(C(=O)c2ccc3c(=O)n(Cc4ccccc4)c(=S)[nH]c3c2)CC1 89.1 µM [inhibitor, single point]
CCN(CC)S(=O)(=O)c1ccc(NCc2ccccn2)nc1 12.6 µM [inhibitor, single point]
Cc1ccc2cc(C(c3nnnn3Cc3ccccc3)N3CCc4ccccc43)c(=O)[nH]c2c1C (stereo not given) 158 µM [inhibitor, partial curve, poor fit]
CC(=O)c1c(C)n(CC(=O)NCc2ccc3c(c2)OCO3)c2ccccc12 14.1 µM [inhibitor, single point]
O=C(Nc1nnc(SCC(=O)N2CCCc3ccccc32)s1)c1cccc2ccccc12 70.8 µM [inhibitor, single point]
COc1ccccc1NC(=O)C1=C(C)N(c2ccccc2)C(=S)NC1c1cccc(C(F)(F)F)c1 (stereo not given) 31.6 µM [inhibitor, partial curve, poor fit]
CCN1C(=NCC2CC2)N[C@@H](c2cccc(C(F)(F)F)c2)C(C(=O)OC)=C1C 50.1 µM [inhibitor, single point]
Cc1nc2c(-c3ccc(F)cc3)c(C)nn2c(C)c1CCC(=O)N1CCC(Cc2ccccc2)CC1 355 µM [inhibitor, partial curve, poor fit]
NS(=O)(=O)c1ccc(CCNC(=O)c2cc3ccccc3s2)cc1 89.1 µM [inhibitor, single point]
CCc1ccccc1NC(=O)CSC1=C(C#N)C(c2ccc3c(c2)OCO3)C2=C(CCCC2=O)N1 (stereo not given) 447 µM [inhibitor, partial curve, poor fit]
CN(CCC1CCOCC1)Cc1cn[nH]c1-c1ccc(-c2ccccc2)cc1 20 µM [inhibitor, single point]
Cc1c(C)c2cc(Cl)c(O)c(CN(C)C)c2oc1=O 282 µM [inhibitor, partial curve, poor fit]
CCOc1ccccc1NC(=O)c1ccc2ccccc2c1 89.1 µM [inhibitor, single point]
CNC(=O)c1ccsc1NC(=O)c1ccc(S(=O)(=O)N2CCc3ccccc32)cc1 25.1 µM [inhibitor, single point]
N#Cc1ccc(-c2ccc3c(c2)OCO3)nc1SCC(=O)OCc1ccccc1 70.8 µM [inhibitor, partial curve, poor fit]
O=C(/C=C/c1ccco1)Nc1nnc(-c2ccco2)s1 31.6 µM [inhibitor, single point]
O=C(NC(=S)Nc1ccc2[nH]c(=O)[nH]c2c1)c1ccccc1[N+](=O)[O-] 100 µM [inhibitor, single point]
O=C(O)c1[nH]c2ccccc2c1C(c1cc(Br)ccc1O)c1c(C(=O)O)[nH]c2ccccc12 11.2 µM [inhibitor, single point]
O=C(NCc1cccc(F)c1)c1ccc(N2C(=O)Cn3c(cc4sccc43)C2=O)cc1 89.1 µM [inhibitor, partial curve, poor fit]
COc1cc(CNCCO)cc(Cl)c1OCc1ccccc1Cl 8.91 µM [inhibitor, single point]
Cc1ccc(S(=O)(=O)N(C)C[C@@H]2Oc3ccc(NC(=O)CCC(F)(F)F)cc3CC(=O)N([C@@H](C)CO)C[C@@H]2C)cc1 100 µM [inhibitor, single point]
COc1ccc2c(Cl)c(C(=O)NCc3ccco3)sc2c1 112 µM [inhibitor, partial curve, poor fit]
CS(=O)(=O)c1nc(S(=O)(=O)c2ccc(Cl)cc2)c(NCc2ccccn2)s1 100 µM [inhibitor, single point]
O=C(Cn1cc(-c2nnnn2-c2ccc(Cl)cc2)c(=O)c2ccccc21)c1ccccc1 100 µM [inhibitor, single point]
CCOc1cccc2sc(N(CCCN(C)C)C(=O)Cc3ccccc3)nc12 8.91 µM [inhibitor, single point]
CN1C(=O)NC(c2ccccc2[N+](=O)[O-])C2=C1CCCC2=O (stereo not given) 100 µM [inhibitor, single point]
COc1ccccc1CCNC(=O)c1cnccn1 100 µM [inhibitor, single point]
CC1(C)Cc2c(C#N)c(N3CCN(C(=O)c4ccco4)CC3)nc(Cc3ccccc3)c2CO1 100 µM [inhibitor, partial curve, poor fit]
O=c1c2ccccc2c(/C=N/c2ncn[nH]2)c(O)n1Cc1ccccc1 79.4 µM [inhibitor, single point]
O=C1NC(c2ccccc2)(C(F)(F)F)C(=O)N1Cc1cccnc1 (stereo not given) 11.2 µM [inhibitor, single point]
COc1cc(C(=O)OCC(=O)N2CCCCC2C)cc(NC(=O)c2cccs2)c1OC (stereo not given) 63.1 µM [inhibitor, single point]
COCCn1c(=O)[nH]c2cc(C(=O)Nc3ccc(OC)c(Cl)c3)ccc2c1=O 28.2 µM [inhibitor, single point]
O=C(c1ccccc1F)N1CCN(S(=O)(=O)c2ccc(S(=O)(=O)N3CCCCCC3)cc2)CC1 22.4 µM [inhibitor, single point]
Cc1ccc(C)c(N2CCN(C(=O)c3cn(C)c4ccc(S(=O)(=O)N(C)C)cc4c3=O)CC2)c1 25.1 µM [inhibitor, single point]
COc1cccc(NC(=S)N2CCN(S(C)(=O)=O)CC2)c1 22.4 µM [inhibitor, single point]
Clc1cccc(-c2sc(Nc3ccccc3)n[n+]2-c2ccccc2)c1Cl 89.1 µM [inhibitor, single point]
CC(C1CC1)N(Cc1ccccc1)C(=S)Nc1ccccc1 (stereo not given) 100 µM [inhibitor, single point]
COc1ccccc1NC(=O)Nc1ccc2c(c1)CCC2 89.1 µM [inhibitor, single point]
COc1ccc(NC(=O)c2cn(-c3ccccc3)nc2-c2ccncc2)cc1 50.1 µM [inhibitor, single point]

Potency, inactive:
CCOc1ccccc1/C=N/OCC(=O)NCc1ccc(F)cc1
COc1ccccc1NC(=O)CCn1cnc2ccccc2c1=O
C=C(C)COc1ccc2c(C)c(CC(=O)N3C[C@H]4C[C@@H](C3)c3cccc(=O)n3C4)c(=O)oc2c1
CC1(c2ccc([N+](=O)[O-])cc2)NC(=O)N(CC(=O)Nc2ccc(N3CCCCC3)cc2)C1=O (stereo not given)
CCOc1ccc(C(C(=O)NC2CCCC2)N(CCCO)C(=O)c2ccc(-c3ccccc3)[nH]2)cc1 (stereo not given)
Cc1ccc(SC[C@H](Cc2ccccc2)N2CCN(CC(C)C)CCC2=O)cc1
CS(=O)(=O)c1ccccc1C(=O)N1CCN(S(=O)(=O)c2ccc(C3CCCCC3)cc2)CC1
CCOC(=O)CSc1nc(-c2ccccn2)ncc1OC
Cc1ccccc1C(=O)NC1CCN(CC(=O)N2CCCCC2C)CC1 (stereo not given)
C/C(=N\NC(=O)C1(C)CC1(Br)Br)c1cccc(NC(=O)c2ccc(C)o2)c1 (stereo not given)
Cc1ccc(-c2cc(C(=O)NCc3ccccn3)c3ccccc3n2)cc1C
Oc1c(C(Nc2ccccn2)c2ccccn2)ccc2cccnc12 (stereo not given)
O=C1CSC(c2ccc([N+](=O)[O-])cc2)N1Cc1ccccc1 (stereo not given)
O=C1N/C(=N\N=C\c2ccccn2)SC1Cc1cccc(SC(F)F)c1 (stereo not given)
Cc1csc(C(=O)O)c1NC(=O)c1c(Cl)cccc1Cl
CSCCC1NC2(C(=O)Nc3c(Cl)cccc32)[C@@H]2C(=O)N(C3CCCC3)C(=O)[C@H]12 (stereo not given in full)
O=C(NC(=S)Nc1ccc(N2CCOCC2)c(Cl)c1)c1cncc(Br)c1
CC(Sc1nncn1C)C(=O)Nc1ccc2ccccc2c1 (stereo not given)
CC1CC(=O)c2cnc(Nc3cccc(C(F)(F)F)c3)nc2C1 (stereo not given)
COc1ccc(C(C)=O)c(OC(=O)c2ccc(OC)c(OC)c2)c1
Cc1ccc(OCCCCCN2CCOCC2)cc1
O=C(CCCOc1ccc(Cl)cc1)N1CCCCC1
CSC1=NC(NCCCO)c2c(sc3c2CC(C)(C)OC3)N1 (stereo not given)
O=C(O)CN1C(=O)/C(=C\c2cccc(OCc3ccc(Cl)cc3Cl)c2)SC1=S
Cc1nn(-c2ccccc2)c(C)c1/C=N\NS(=O)(=O)c1ccc(Cl)cc1
C=CCn1c(C)cc(C(=O)CSc2nc3ccccc3c(=O)[nH]2)c1C
O=C(c1cccc(Cl)c1)N1CCC(=O)N(C(COCc2cccc(Cl)c2)Cc2ccccc2)CC1 (stereo not given)
CCOc1ccccc1CNC(=O)c1cc2occc2n1C
O=C1CN(S(=O)(=O)c2cccc(Br)c2)CCN1
O=C(CCl)Nc1cc(SCC(O)CO)cc([N+](=O)[O-])c1 (stereo not given)

4 compounds from above, sorted by count of non-hydrogen atoms, low to high.
Potency, inactive:
Cc1ccc(OCCCCCN2CCOCC2)cc1
CCOC(=O)CSc1nc(-c2ccccn2)ncc1OC
COc1ccc(C(C)=O)c(OC(=O)c2ccc(OC)c(OC)c2)c1
O=C(c1cccc(Cl)c1)N1CCC(=O)N(C(COCc2cccc(Cl)c2)Cc2ccccc2)CC1 (stereo not given)

— PubChem BioAssay AID504842 (National Center for Advancing Translational Sciences (NCATS), 2011)
